Test results as given in PubChem BioAssay AID330 (DTP/NCI, 2004).
The list does not hold the whole screen: it gathers tests that were run many times, whatever their T/C, doses with no T/C, and many T/C values between a quarter and a half above the control. Other doses and runs of a compound stand elsewhere. T/C is the treated group as % of the vehicle group. Some doses have a count of surviving animals in place of a T/C: the source files T/C as zero there, which appears to mark a toxic dose or a test without result, not a measured value. Some doses without a T/C left all or most animals alive at the check, yet need not have been tolerated: survival well below the control is almost never listed, so the zero probably covers shortened survival too. Survivors were counted at the toxicity check, usually on the fifth day, unless a day is given; later deaths do not show. Schedule codes are those of the source, taken here to give the interval after Q, in days (D) or hours (H), and the number of doses after X. For survival time, the PubChem record calls one and a half times the control and up active, and a quarter to a half above the control has no call in these data; cut-offs in other NCI protocols can differ. Some entries hold several experiments; the results are listed from low to high. Marks such as (2×) give the number of equal values in this list. Some T/C values carry the count of animals alive at the toxicity check (mostly the fifth day); where none is given, no animal had died by that day.

System: P388 leukemia ip, CD2F1 mice, survival T/C
Assay: NCI In Vivo Anticancer Drug Screen. Data for tumor model P388 Leukemia (intraperitoneal) in CD2F1 (CDF1) mice
Settings: T/C endpoint: median survival time, higher T/C = longer survival
[1] = dose: 200.0 mg/kg/injection, schedule: Q01DX005 (ip), vehicle: saline with Tween-80
[2] = dose: 240.0 mg/kg/injection, schedule: Q01DX005 (ip), vehicle: saline
[3] = dose: 60.0 mg/kg/injection, schedule: Q01DX005 (ip), vehicle: saline
[4] = dose: 120.0 mg/kg/injection, schedule: Q01DX005 (ip), vehicle: saline
[5] = dose: 25.0 mg/kg/injection, schedule: Q01DX009 (ip), vehicle: saline with Tween-80
[6] = dose: 50.0 mg/kg/injection, schedule: Q01DX009 (ip), vehicle: saline with Tween-80
[7] = dose: 100.0 mg/kg/injection, schedule: Q01DX009 (ip), vehicle: saline with Tween-80
[8] = dose: 200.0 mg/kg/injection, schedule: Q01DX009 (ip), vehicle: saline with Tween-80
[9] = dose: 50.0 mg/kg/injection, schedule: Q01DX009 (ip), vehicle: saline
[10] = dose: 25.0 mg/kg/injection, schedule: Q01DX009 (ip), vehicle: saline

## CCN(CC)CCN(Cc1ccccc1)C(=O)C1c2ccccc2Oc2ccccc21
[1]
  survivor count: 0 of 5

## Cc1oc2ccccc2c(=O)c1CN1CCN(C)CC1
[2]
  survivor count: 0 of 6

## CCCCCCCCCCCCCCC(C(=O)[O-])[n+]1ccccc1 (configuration not stated)
[3]
  survivor count: 5 of 6
[4]
  survivor count: 2 of 6
[2]
  survivor count: 0 of 6

## CN(C)CC(CN(C)C)C(=O)/C=C/c1ccc(Cl)cc1Cl
[3]
  survivor count: 0 of 6
[4]
  survivor count: 0 of 6
[2]
  survivor count: 0 of 6

## CC1(C)N=C(N)N=C(N)N1c1ccc(CCCCc2ccc(S(=O)(=O)F)cc2)c(Cl)c1
dose: 100.0 mg/kg/injection, schedule: Q04DX003 (ip), vehicle: saline
  survivor count: 6 of 6
dose: 200.0 mg/kg/injection, schedule: Q04DX003 (ip), vehicle: saline
  survivor count: 0 of 6
dose: 400.0 mg/kg/injection, schedule: Q04DX003 (ip), vehicle: saline
  survivor count: 1 of 6

## O=C1c2cccc3cc([N+](=O)[O-])cc(c23)C(=O)N1CCN1CCCC1
dose: 3.12 mg/kg/injection, schedule: Q01DX009 (ip), vehicle: saline with Tween-80
  T/C: 129 % of control
dose: 3.13 mg/kg/injection, schedule: Q01DX009 (ip), vehicle: saline with Tween-80
  T/C: 135 % of control
dose: 6.25 mg/kg/injection, schedule: Q01DX009 (ip), vehicle: saline with Tween-80
  T/C: 140 and 141 % of control
dose: 12.5 mg/kg/injection, schedule: Q01DX009 (ip), vehicle: saline with Tween-80
  T/C: 141 % of control
[5]
  T/C: 128 % of control [4 of 6 alive]
  survivor count: 6 of 6
[6]
  survivor count: 5 of 6
[7]
  survivor count: 2 of 6
[8]
  survivor count: 0 of 6

## CC(C)(C)c1cc(C(C)(C)O)c2c(c1)C(C)(C)OS2(C)Cl (configuration not stated)
dose: 100.0 mg/kg/injection, schedule: Q04DX003 (ip), vehicle: saline with Tween-80
  survivor count: 0 of 6
dose: 200.0 mg/kg/injection, schedule: Q04DX003 (ip), vehicle: saline with Tween-80
  survivor count: 0 of 6

## COc1cc2ccnc(C=O)c2cc1OC
[8]
  survivor count: 3 of 6

## S=CN1CCCCC1
dose: 60.0 mg/kg/injection, schedule: Q01DX005 (ip), vehicle: saline with Tween-80
  survivor count: 0 of 6
dose: 120.0 mg/kg/injection, schedule: Q01DX005 (ip), vehicle: saline with Tween-80
  survivor count: 0 of 6
dose: 240.0 mg/kg/injection, schedule: Q01DX005 (ip), vehicle: saline with Tween-80
  survivor count: 0 of 6

## CCCCCCCCCCCCCCCC[N+](C)(C)CCNC(=O)C1CSC(C)(C)N1C=O (configuration not stated)
[9]
  survivor count: 5 of 6

## O=C1C(N=Nc2ccc([N+](=O)[O-])cc2)Sc2nc3ccccc3n21 (configuration not stated)
dose: 60.0 mg/kg/injection, schedule: Q01DX005 (ip), vehicle: Klucel (hydroxypropylcellulose) (HPC)
  survivor count: 6 of 6
dose: 120.0 mg/kg/injection, schedule: Q01DX005 (ip), vehicle: Klucel (hydroxypropylcellulose) (HPC)
  survivor count: 5 of 6
dose: 240.0 mg/kg/injection, schedule: Q01DX005 (ip), vehicle: Klucel (hydroxypropylcellulose) (HPC)
  survivor count: 6 of 6

## COc1ccc(C(C#N)N2CCOCC2)cc1 (configuration not stated)
[10]
  T/C: 100 (2×) and 106 % of control
  survivor count: 3 of 6
[9]
  T/C: 97, 106, 125 % of control
  survivor count: 6 of 6
dose: 100.0 mg/kg/injection, schedule: Q01DX009 (ip), vehicle: saline
  T/C: 89, 91, 104, 111 % of control
dose: 200.0 mg/kg/injection, schedule: Q01DX009 (ip), vehicle: saline
  T/C: 95, 96, 97, 114 % of control

## O=C(O)c1cc2ccc3cccc4ccc(c1)c2c34
[1]
  T/C: 135 % of control [4 of 5 alive]

## CCCCCCCCCCCCCCCCOc1ccc(S(=O)(=O)N/N=c2/sc3ccc(S(=O)(=O)O)cc3n2C)cc1C(=O)O
[6]
  survivor count: 6 of 6
[8]
  survivor count: 1 of 6

## O=C1CC(c2ccc(Cl)cc2)C(c2ccc(Cl)cc2)C1=O (configuration not stated)
dose: 50.0 mg/kg/injection, schedule: Q01DX001 (ip), vehicle: Klucel (hydroxypropylcellulose) (HPC)
  survivor count: 6 of 6
dose: 100.0 mg/kg/injection, schedule: Q01DX001 (ip), vehicle: Klucel (hydroxypropylcellulose) (HPC)
  survivor count: 6 of 6
dose: 200.0 mg/kg/injection, schedule: Q01DX001 (ip), vehicle: Klucel (hydroxypropylcellulose) (HPC)
  survivor count: 6 of 6

## O/N=C/C(Cl)=N\O
dose: 400.0 mg/kg/injection, schedule: Q04DX002 (ip), vehicle: saline with Tween-80
  survivor count: 0 of 6

## Cc1nn(C(=S)S)c(C)c1N=Nc1ccccc1C(F)(F)F
dose: 12.5 mg/kg/injection, schedule: Q04DX002 (ip), vehicle: saline with Tween-80
  T/C: 129 % of control
dose: 100.0 mg/kg/injection, schedule: Q04DX002 (ip), vehicle: saline with Tween-80
  survivor count: 5 of 5

## CCCCNC(=S)NC(=O)c1ccccc1
[7]
  survivor count: 5 of 6
[8]
  survivor count: 0 of 6
